Assay results as given in PMC11102469.
These are yes or no findings as the source states them, for the method shown. Binding calls can cover weak binding; strength is not graded here. Where a sequence is shown, tags or fusion partners need not be part of it.

Biological target: T1, MBP-tagged Rab11B (full-length, wild type) (Toxoplasma gondii) (UniProt Q7Z158)
T1 sequence: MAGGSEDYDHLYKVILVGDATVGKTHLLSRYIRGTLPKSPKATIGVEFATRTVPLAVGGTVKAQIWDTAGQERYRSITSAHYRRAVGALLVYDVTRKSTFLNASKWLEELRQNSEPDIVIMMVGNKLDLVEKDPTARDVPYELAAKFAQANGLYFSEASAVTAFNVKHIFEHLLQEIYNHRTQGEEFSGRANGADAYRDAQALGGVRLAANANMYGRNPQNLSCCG
Test: pull-down; 4 µg MBP-Rab or MBP-Rab^QL held on 20 µL MBP agarose resin as bait (MBP protein binding buffer with 1 mM DTT, 1 mM PMSF, 4 °C, 2 h); 4 µg his-TBC9 or his-TBC9^R74A in 500 µL his protein binding buffer, 4 °C, 2 h; washes with 0.1% Triton X-100; Western blot with anti-His and anti-MBP; both purified

How did the binding turn out when “His-tagged TBC9^R74A (GAP-inactive mutant) (Toxoplasma gondii)” was run?
Its binding is “binds”.
